# This is one part of the list.
# By UniProt entry, the sequences of proteins in these tests, tags left out. Where a name states a change or a piece, a line headed by the entry shows the natural chain unless it says otherwise.
# UniProt Q01826: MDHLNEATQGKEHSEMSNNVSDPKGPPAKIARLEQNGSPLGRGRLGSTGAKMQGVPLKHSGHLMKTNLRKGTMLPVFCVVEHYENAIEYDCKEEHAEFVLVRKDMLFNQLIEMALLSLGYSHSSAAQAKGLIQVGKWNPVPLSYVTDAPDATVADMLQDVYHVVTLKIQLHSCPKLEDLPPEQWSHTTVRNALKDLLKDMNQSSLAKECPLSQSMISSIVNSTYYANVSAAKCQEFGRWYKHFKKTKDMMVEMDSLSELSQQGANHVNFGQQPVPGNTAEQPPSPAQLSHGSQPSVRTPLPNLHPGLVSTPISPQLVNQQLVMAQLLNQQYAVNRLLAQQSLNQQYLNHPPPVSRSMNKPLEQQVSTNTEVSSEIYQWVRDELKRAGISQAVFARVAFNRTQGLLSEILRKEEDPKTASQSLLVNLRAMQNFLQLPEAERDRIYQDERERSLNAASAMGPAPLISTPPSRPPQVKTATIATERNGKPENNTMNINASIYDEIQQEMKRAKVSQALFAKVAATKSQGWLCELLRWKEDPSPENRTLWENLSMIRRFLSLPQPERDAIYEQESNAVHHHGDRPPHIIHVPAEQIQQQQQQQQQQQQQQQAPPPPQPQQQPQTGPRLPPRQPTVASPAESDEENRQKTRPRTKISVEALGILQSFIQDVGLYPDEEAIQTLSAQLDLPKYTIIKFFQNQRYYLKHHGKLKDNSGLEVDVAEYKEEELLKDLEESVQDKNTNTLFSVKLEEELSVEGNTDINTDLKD
# UniProt O95487: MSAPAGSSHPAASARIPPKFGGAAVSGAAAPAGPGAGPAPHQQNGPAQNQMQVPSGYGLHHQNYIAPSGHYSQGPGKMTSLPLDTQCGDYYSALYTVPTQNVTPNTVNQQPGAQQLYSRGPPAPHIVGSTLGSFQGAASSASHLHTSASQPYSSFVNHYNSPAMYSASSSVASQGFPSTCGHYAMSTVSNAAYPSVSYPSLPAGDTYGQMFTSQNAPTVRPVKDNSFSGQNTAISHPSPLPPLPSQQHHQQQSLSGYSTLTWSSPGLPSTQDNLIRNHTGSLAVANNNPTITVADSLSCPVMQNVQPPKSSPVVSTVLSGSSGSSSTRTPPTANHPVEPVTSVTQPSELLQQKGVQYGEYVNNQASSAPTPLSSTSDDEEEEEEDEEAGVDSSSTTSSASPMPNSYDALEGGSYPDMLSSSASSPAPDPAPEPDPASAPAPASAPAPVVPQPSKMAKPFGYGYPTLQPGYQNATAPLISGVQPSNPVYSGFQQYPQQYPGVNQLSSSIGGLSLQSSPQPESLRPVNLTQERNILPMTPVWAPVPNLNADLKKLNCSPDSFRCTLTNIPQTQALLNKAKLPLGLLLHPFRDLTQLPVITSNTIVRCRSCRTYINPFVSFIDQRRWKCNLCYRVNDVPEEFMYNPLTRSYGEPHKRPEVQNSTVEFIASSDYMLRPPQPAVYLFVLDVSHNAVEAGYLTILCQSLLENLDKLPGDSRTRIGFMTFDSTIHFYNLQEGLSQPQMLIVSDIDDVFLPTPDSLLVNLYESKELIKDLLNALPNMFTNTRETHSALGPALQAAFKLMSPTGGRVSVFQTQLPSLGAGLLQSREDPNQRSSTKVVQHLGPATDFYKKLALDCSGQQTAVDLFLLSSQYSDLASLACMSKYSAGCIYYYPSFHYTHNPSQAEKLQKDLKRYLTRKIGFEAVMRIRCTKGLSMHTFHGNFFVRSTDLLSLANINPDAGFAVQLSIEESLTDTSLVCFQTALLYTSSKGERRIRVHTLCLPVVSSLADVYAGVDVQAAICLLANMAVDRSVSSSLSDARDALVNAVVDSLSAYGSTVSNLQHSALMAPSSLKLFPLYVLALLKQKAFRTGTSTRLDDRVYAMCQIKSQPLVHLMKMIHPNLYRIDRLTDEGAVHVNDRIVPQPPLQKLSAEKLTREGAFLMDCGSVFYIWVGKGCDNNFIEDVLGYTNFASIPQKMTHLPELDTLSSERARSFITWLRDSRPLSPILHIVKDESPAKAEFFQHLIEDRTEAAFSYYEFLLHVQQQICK
# UniProt Q9NVA2: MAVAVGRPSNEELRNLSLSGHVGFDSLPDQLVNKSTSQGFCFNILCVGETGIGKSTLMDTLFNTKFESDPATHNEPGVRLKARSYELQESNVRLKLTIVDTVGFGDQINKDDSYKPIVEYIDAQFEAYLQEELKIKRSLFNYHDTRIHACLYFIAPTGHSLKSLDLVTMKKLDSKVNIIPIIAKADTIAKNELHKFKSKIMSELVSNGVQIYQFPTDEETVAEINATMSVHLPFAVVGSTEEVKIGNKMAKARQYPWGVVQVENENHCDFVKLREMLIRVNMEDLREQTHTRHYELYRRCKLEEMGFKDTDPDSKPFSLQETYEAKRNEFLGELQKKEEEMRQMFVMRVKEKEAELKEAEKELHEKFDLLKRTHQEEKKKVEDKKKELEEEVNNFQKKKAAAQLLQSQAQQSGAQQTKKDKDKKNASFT
# UniProt P30825: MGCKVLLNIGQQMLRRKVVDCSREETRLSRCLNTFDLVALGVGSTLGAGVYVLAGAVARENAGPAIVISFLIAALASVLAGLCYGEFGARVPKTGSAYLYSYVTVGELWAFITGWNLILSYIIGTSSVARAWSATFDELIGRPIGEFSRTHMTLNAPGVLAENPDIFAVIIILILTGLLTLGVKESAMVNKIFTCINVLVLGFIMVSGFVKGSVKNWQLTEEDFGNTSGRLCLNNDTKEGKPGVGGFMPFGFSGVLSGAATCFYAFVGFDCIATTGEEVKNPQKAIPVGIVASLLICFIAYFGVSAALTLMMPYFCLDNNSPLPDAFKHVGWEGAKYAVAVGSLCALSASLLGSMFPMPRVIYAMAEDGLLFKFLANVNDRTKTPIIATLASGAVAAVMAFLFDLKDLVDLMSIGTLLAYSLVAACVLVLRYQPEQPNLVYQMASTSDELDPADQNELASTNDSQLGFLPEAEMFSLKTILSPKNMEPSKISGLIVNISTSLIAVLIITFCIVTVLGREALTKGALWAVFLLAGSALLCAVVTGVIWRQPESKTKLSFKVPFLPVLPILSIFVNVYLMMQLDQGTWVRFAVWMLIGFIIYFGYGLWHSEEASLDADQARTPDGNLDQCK
# UniProt Q13433: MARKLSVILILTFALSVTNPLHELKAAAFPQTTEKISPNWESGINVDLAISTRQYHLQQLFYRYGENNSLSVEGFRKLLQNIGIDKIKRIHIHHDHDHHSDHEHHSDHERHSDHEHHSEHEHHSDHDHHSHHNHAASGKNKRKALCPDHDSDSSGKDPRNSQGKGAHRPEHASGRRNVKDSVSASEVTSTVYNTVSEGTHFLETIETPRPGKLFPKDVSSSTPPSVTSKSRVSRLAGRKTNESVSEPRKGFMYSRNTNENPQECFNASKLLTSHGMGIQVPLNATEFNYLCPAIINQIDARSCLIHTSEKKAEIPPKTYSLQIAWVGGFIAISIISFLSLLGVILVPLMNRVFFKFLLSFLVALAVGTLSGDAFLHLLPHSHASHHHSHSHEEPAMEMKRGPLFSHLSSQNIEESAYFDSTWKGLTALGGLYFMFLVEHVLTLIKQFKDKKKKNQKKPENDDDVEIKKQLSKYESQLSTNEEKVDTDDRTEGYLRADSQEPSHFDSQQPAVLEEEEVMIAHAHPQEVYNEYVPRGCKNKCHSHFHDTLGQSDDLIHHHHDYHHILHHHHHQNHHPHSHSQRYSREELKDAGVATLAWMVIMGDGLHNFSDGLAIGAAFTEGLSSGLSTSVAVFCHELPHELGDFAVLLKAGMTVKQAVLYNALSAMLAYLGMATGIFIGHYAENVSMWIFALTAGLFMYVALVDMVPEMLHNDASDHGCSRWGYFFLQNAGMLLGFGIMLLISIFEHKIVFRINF
# UniProt P30740: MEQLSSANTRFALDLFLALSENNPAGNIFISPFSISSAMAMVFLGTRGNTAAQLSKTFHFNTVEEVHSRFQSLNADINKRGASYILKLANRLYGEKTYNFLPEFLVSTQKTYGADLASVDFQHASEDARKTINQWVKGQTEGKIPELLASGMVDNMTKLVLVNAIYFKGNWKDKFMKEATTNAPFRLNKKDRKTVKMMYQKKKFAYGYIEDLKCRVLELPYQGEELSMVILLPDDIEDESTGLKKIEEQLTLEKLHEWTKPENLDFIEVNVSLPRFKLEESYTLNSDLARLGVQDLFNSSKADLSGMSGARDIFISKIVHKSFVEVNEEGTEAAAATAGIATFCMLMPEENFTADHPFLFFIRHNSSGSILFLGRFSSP
# UniProt Q8IWZ8: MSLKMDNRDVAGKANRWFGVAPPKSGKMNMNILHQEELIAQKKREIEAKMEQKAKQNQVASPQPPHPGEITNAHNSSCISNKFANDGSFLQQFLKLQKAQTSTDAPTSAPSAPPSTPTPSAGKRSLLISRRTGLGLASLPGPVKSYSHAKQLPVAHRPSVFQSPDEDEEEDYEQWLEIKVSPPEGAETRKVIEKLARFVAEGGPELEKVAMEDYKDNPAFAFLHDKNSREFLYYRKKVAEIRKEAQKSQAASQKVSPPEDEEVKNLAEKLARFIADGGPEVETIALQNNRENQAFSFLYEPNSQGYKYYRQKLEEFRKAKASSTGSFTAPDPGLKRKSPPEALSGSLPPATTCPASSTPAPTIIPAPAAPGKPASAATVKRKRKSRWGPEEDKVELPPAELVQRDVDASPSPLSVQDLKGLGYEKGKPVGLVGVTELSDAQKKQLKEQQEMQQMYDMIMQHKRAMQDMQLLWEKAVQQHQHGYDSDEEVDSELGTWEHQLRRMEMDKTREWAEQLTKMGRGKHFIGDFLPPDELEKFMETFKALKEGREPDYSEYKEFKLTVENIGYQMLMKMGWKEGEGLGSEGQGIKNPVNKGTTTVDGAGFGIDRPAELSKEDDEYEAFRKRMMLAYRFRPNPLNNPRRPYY
# UniProt O15126: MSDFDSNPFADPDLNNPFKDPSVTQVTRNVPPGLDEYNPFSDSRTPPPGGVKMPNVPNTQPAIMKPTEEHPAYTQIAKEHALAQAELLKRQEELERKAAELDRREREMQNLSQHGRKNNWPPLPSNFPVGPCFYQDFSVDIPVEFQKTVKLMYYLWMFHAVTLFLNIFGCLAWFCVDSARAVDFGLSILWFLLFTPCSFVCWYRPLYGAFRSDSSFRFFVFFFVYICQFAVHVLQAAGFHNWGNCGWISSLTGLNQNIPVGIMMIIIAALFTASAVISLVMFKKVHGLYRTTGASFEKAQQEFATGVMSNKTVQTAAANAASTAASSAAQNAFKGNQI
# UniProt Q07955, whole entry: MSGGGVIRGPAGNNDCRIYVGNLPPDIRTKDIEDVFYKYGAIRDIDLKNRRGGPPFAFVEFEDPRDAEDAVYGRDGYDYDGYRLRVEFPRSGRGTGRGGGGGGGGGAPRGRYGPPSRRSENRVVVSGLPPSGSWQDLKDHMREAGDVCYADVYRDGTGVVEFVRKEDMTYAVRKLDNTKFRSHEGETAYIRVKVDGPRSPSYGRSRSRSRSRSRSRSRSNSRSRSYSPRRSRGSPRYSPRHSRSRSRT
# UniProt Q96JX3: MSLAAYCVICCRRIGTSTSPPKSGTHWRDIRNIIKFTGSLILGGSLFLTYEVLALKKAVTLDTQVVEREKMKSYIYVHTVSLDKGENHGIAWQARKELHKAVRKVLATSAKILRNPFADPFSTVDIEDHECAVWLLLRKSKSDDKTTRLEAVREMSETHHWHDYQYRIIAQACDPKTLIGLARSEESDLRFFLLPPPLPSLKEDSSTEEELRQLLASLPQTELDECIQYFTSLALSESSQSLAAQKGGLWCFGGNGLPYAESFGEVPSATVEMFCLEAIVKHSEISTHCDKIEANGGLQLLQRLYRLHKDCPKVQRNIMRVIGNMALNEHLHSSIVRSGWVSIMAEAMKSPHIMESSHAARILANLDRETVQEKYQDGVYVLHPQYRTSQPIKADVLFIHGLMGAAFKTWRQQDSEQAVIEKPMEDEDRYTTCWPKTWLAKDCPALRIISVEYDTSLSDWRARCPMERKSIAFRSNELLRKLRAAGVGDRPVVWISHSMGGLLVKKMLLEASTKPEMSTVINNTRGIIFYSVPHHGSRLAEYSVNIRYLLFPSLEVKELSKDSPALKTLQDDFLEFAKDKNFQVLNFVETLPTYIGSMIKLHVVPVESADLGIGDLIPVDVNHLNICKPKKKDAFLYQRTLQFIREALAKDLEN
# UniProt Q96NB2: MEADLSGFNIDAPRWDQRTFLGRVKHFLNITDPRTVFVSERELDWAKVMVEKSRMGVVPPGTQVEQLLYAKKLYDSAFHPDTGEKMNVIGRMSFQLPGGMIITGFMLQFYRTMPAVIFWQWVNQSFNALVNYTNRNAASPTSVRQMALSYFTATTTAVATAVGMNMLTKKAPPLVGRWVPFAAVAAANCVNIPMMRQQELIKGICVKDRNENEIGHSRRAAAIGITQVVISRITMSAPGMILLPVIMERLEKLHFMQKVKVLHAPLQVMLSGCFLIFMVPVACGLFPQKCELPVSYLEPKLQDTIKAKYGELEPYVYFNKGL
# Compound: COc1ccc(Cn2ccc3ccc(C(=O)NO)cc32)cc1
# Assay: dose-dependent thermal stabilisation call (2D-TPP, DLPTP, 10% FDR) (binary (1 = stabilised)); higher = stabilised by the compound
# Conditions: system: HL-60 intact cells; concentration range 0.04-10 µM
row,Target,dose-dependent thermal stabilisation call
1,SATB1 (UniProt Q01826),inactive: 0
2,SLC12A6 (UniProt Q9UHW9),inactive: 0
3,SFRS2 (UniProt Q01130),inactive: 0
4,SEC24B (UniProt O95487),inactive: 0
5,SEPT11 (UniProt Q9NVA2),inactive: 0
6,SESN2 (UniProt P58004),inactive: 0
7,SLC25A4 (UniProt P12235),inactive: 0
8,SEPT9 (UniProt Q9UHD8),inactive: 0
9,SH3GLB1 (UniProt Q9Y371),inactive: 0
10,SIP1,inactive: 0
11,SLC7A1 (UniProt P30825),inactive: 0
12,SLC39A6 (UniProt Q13433),inactive: 0
13,SLC41A3 (UniProt Q96GZ6),inactive: 0
14,SLC35E1 (UniProt Q96K37),inactive: 0
15,SLC19A2 (UniProt O60779),inactive: 0
16,SERPINB1 (UniProt P30740),inactive: 0
17,SGPP1 (UniProt Q9BX95),inactive: 0
18,SLC31A1 (UniProt O15431),inactive: 0
19,SLC12A9 (UniProt Q9BXP2),inactive: 0

row,Target,dose-dependent thermal stabilisation call
1,SF4 (UniProt Q8IWZ8),inactive: 0
2,SHKBP1 (UniProt Q8TBC3),inactive: 0
3,SIAE (UniProt Q9HAT2),inactive: 0
4,SEPT8 (UniProt Q92599),inactive: 0
5,SLC35F2 (UniProt Q8IXU6),inactive: 0
6,SLC25A33 (UniProt Q9BSK2),inactive: 0
7,SAV1 (UniProt Q9H4B6),inactive: 0
8,SLC25A14 (UniProt O95258),inactive: 0
9,SLC25A28 (UniProt Q96A46),inactive: 0
10,SLC1A4 (UniProt P43007),inactive: 0
11,SLC39A10 (UniProt Q9ULF5),inactive: 0
12,SCAMP1 (UniProt O15126),inactive: 0
13,SFRS1 (UniProt Q07955),inactive: 0
14,SHCBP1 (UniProt Q8NEM2),inactive: 0
15,SEDLP,inactive: 0
16,SERAC1 (UniProt Q96JX3),inactive: 0
17,SCAMP3 (UniProt O14828),inactive: 0
18,SFXN2 (UniProt Q96NB2),inactive: 0

# An excerpt of these results, as tab-separated lines.
row	Target	dose-dependent thermal stabilisation call
2	SHKBP1 (UniProt Q8TBC3)	inactive: 0
10	SLC1A4 (UniProt P43007)	inactive: 0
14	SHCBP1 (UniProt Q8NEM2)	inactive: 0
